Reference: publication PMC1459216
No constants are given. Whether binding was seen depends on the method and setting. Binding can be weak; no strength is given. For some assays here: In cells and extracts the contact can be indirect. Each block holds one binder with its values, some of them ahead of it.

Assays:
[1] = molecular target: DSP1 (Dorsal Switch Protein 1) (Drosophila melanogaster (endogenous in w1118 embryos)); assay: co-IP; extracts of 0-14 hour-old w1118 embryos (50 mM Tris pH 7.5, 150 mM NaCl, 1% NP40, 0.1% SDS), affinity-purified anti-DSP1 antibodies on protein A-agarose, overnight 4°C; rabbit serum as mock; western blot with rat anti-Corto
[2] = molecular target: MBP-DSP1 (full-length DSP1) (Drosophila melanogaster); assay: far-Western, overlay or dot blot; MBP-DSP1 fusion proteins run on SDS-PAGE and transferred to a membrane, incubated with 35S-labeled in vitro translated Corto; phosphorimager; only the target purified

binding [1]: binds
B1: Corto (protein, UniProt P41046 1-550)
chain: MTMAACYANYDMSSLSHGMSALSALQQQQQQQQQQHSQTQQQHHHQQQQQHMYHAAVAAHQQQLLQQQQQQQHHRHHHQPANTSSSSNSRHSHAAATQTQVAAAVANSRQQQQQQQQQQQQQQQQQTASSNSNAAPAPSPQKDYSIPLHVDCSVEYELPNQPKPPAGQRVEPLLMIHPCYFRKMESQRRSPFVNNMHATARAVSSSSLSSGAALGGGGSGAAVATAPSSSAARRGARAATSAQQQQQQQQRYQQQQQQLRQQHQQMSQMSQQAHYPQQQSSLVRQHQQQQQQQQQQQRASSNQSQRQSQSQSQSQSHAANSAAAAAAQASIAAAAAGQWDQLAALAARTALTPHHMLHPHSHYAAKGSGGGAGGGKRDAMISGSYGQTAVASGKLQQSQVQQQQPQQQQQHCLPPPPWDATSMLMDRSPMATVPSNYQAGPDTNPMRLYSATPTAGAASGGSASVGGGGAVSGAGATGAVNTATDKLSGKYRQYLRSQRMHPYAAAASLNLAAAAAAAGQTSFVPFSSAATAVAATPTFQHLPQISCYNV

binding [2]: binds
B2: full-length radiolabeled Corto (protein, UniProt P41046 1-550)
chain: B1 chain
modifications: 35S methionine (radiolabel)
